Laboratory results from PubChem BioAssay AID1347423 (Functional Genomics Laboratory (NCATS/FGL), 2020).
About 210 (0.4%) of roughly 52,000 sequences were called active.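 Rule for the calls: active = gene whose silencing raises cell survival under the drug, median off-target-corrected z-score across its silencing RNAs 2 or more; inactive = the rest.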 The list shows a part of the results.

Assay: Resistance to Poly (ADP-Ribose) Polymerase inhibitor: Gene Identification via Genome-wide siRNA Screen
Settings: mouse BRCA2 R2336H ES cells, olaparib, CellTiter-Glo viability; stronger effect = higher value
Outline: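 Mouse BRCA2 R2336H ES cells were reverse-transfected with siRNA (20 nM final), treated at 48 h with 500 nM olaparib, and read by CellTiter-Glo after 72 h. Scores: MAD-based z per siRNA, median per gene, seed off-target correction.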
In the case of GGUUCAGGAGAACUUCAGUTT against Ambp, the z-score is reported as inactive: 0.75. For GGUAGCAGCCUUCCGACAUTT against Mtmr9, the z-score was inactive: 2.48. With GGAGCAAAUCCAGAACCGATT against Trim27 the z-score was inactive: 1.34. For GGAGAACUACCUGUCAGAATT against Tnni2, the z-score was inactive: -0.31. In the case of GGCCAACCAAGAGGACAAUTT against Nup107, the z-score is reported as inactive: -2.19. For GGUGAACCUUGGUACCCAUTT against Mrps18b, the z-score was inactive: -0.809. In the case of “CGGUUACAAUUCAGUGAUATT against C230008H04Rik”, the z-score is reported as inactive: 0.278. With “GCUUACAUCCAAGCCGUCUTT against 4931440B09Rik” the z-score was inactive: 1.71. In the case of GGAUCACCAAAAAUAGAUATT against D4Wsu53e, the z-score is reported as inactive: 1.57. In the case of CCGUCGUACACAAUCUUACTT against Fgfr4, the z-score is reported as inactive: 0.64. In the case of “GACAAGCAAUAAAGAAAGATT against 1110008K04Rik”, the z-score is reported as inactive: -0.134. For GUAUUAUAGACACCUUGCATT against Phip, the z-score was inactive: 1.78. In the case of GGAAAUAACAAGUUUUCCATT against Endogl1, the z-score is reported as inactive: 0.802. For GGUCUAUACCAUCCUAUUGTT against Faim2, the z-score was inactive: -1.24. With UUUGAACUUUCGAACCCGCTT against Tuba6 the z-score was inactive: -0.183. In the case of GGCUGUCAAAACAGUGCUCTT against Hmgcs2, the z-score is reported as inactive: 0.0432. For “GGGUGUAAGACUGUGUUUGTT against D230005D02Rik”, the z-score was inactive: 1.22. In the case of “GCUGUCCUACUGAGCUUGCTT against D330012F22Rik”, the z-score is reported as inactive: -1.03. With CGGUGCUGUAUAUUCAUAUTT against Chrm4 the z-score was inactive: -0.0881. In the case of GGUUGUGAUCAAUUAUUCATT against Evl, the z-score is reported as inactive: 0.0791. With GGAAGCUGAAAAAUGAACUTT against Sytl5 the z-score was inactive: 0.101. In the case of GGACAAUCAGUACCUUAACTT against Tex9, the z-score is reported as inactive: -1.6. With GGUCUCAUCUAAGGUGUCATT against Pcdha7 the z-score was inactive: -0.386. With CCUGGAAACAUCAUGUAGUTT against Dctn1 the z-score was inactive: -0.704. For GCCGGAUUCUUCAAAAGCUTT against Commd10, the z-score was inactive: -0.509. In the case of GGACACCUUUCAUCAAAUUTT against Nat3, the z-score is reported as inactive: 1.31. In the case of GUGGCAAAUGCAAAUGCAATT against Fxyd3, the z-score is reported as inactive: 0.922. With “CCCAUUUGAGUGUACAUAATT against 3110001A13Rik” the z-score was inactive: 1.64. With GGAGUGGGAUGAAAUUACATT against Slc35f4 the z-score was inactive: 0.314. For “GGAUGACUGCAUCUCUCUGTT against 2410166I05Rik”, the z-score was inactive: -0.258. In the case of GGAGCUCAUGGAAAUCUGUTT against Pfpl, the z-score is reported as inactive: 0.301. In the case of “GGUCCCUCUAGCUACAAAUTT against A630008I04”, the z-score is reported as inactive: -0.165. In the case of GGCAACUAGCCCUAAAGGCTT against C78915, the z-score is reported as inactive: 1.05. For GGACAUCUCCUUGAUCUUGTT against Slc1a5, the z-score was inactive: 1.22. For CGUUGUCAACUUUAUUUGCTT against Sara1, the z-score was inactive: 0.911. For GCCAAUGGAGGGUUGGAUUTT against Thrap5, the z-score was inactive: -1.59. For “CCGUCUUCACCUGAUACAGTT against 1700013N18Rik”, the z-score was inactive: -1.24. In the case of “GGAUGACGGUGUCAUGUGCTT against D230007K08Rik”, the z-score is reported as inactive: 0.0439. With “GGCUUGUUGAGCCCUUACATT against 4930412M03Rik” the z-score was inactive: 0.188. In the case of GCGAUAUUUCAAGAGAAGCTT against Evc2, the z-score is reported as inactive: 0.167. For CGAUCUUCCAAACCCUCUUTT against Dhh, the z-score was inactive: -0.652. For GCCUGAUUGAUAAAGAAAUTT against Ppp1r14c, the z-score was inactive: -0.0886. In the case of GGUUAGCUACAGAUAUAUUTT against Evi5, the z-score is reported as inactive: -1.01. With CCGAAGGAUUGAAGAGCCUTT against Trnt1 the z-score was inactive: 0.239. With GGCCACCAUCAAUUUAUAUTT against Ripply1 the z-score was inactive: -0.64. For GCAGAAUUGAAGCUGGAAUTT against Stag1, the z-score was inactive: 1.41. In the case of “GGCAUCAAAAAGCAGACAATT against 4933404M02Rik”, the z-score is reported as inactive: -1.1. In the case of AUUGGACUUCUACAUGGCUTT against Olfr207, the z-score is reported as inactive: -1.92. With “GCUCCAGCUCUGCUUUAAGTT against 4931440P22Rik” the z-score was inactive: -0.219. With GGGAGAUGAUAAUAUGUAUTT against Pogk the z-score was inactive: -1.05. With GAGGUACUUACAGGUUGUCTT against Mageb1 the z-score was inactive: -0.93. In the case of GGAGAUGAAUGUUUACAACTT against Sema6a, the z-score is reported as inactive: -0.477. With GGCAGAUUGUGAAAAAACUTT against Slc9a6 the z-score was inactive: 1.17. With GGGAAUGACAGAAAUAUAATT against Golph2 the z-score was inactive: 0.57. For “CCAGAUUUAGGUUUCUUUCTT against 2210412K09Rik”, the z-score was inactive: 0.344. With “GGGAAAGAAUUGGAUUGAATT against B230342M21Rik” the z-score was inactive: 0.314. In the case of GGCGUAUGCAGAAUUCUACTT against Cox6c, the z-score is reported as inactive: 0.615. In the case of GGAGGUUAUGAUUCUUCACTT against BC032265, the z-score is reported as inactive: 1.3. With GGAUAGUUUGGUAAUGAAATT against Cds1 the z-score was inactive: 1.81. With GCUUCAUCGAACAAGUCGCTT against Pcbd the z-score was inactive: -0.414. In the case of “GCACCAUCGACUAAUCAAATT against 1700029J07Rik”, the z-score is reported as inactive: 0.709. For GCAAGCAGAGAUGUUACAUTT against Olfr1284, the z-score was inactive: 0.528. For GGUUCCUACACGAAAGGAUTT against Eif2b4, the z-score was inactive: -0.829. With GGUUCUCCAGUUUGUCCGATT against Evx2 the z-score was inactive: 0.341. With “GGAGAUAAAGGCUCUCUUCTT against 2510006D16Rik” the z-score was inactive: -1.06. In the case of CCGUGGCGUAUGUGAUCAATT against Map3k5, the z-score is reported as inactive: -1.86.
